Reference: US6727241B2, “Anti-inflammatory compositions and methods of use” (Chemocentryx, priority 2002, dated 2004)
Some results were stated once for a whole list of compounds, not compound by compound.

Molecular target: T1, CCR1 (Homo sapiens, UniProt P32246)
T1 sequence (P32246 1-355): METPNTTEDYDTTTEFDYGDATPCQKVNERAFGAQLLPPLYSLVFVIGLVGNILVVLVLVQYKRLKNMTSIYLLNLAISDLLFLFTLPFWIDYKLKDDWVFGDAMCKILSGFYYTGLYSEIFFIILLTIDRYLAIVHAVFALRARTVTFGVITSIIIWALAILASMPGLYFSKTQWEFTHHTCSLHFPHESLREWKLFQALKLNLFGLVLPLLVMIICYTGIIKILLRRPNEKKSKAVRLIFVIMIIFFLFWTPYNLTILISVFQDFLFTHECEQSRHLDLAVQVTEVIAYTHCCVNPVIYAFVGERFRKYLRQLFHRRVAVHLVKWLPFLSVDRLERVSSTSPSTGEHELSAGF
Assay: Inhibition of CCR1 ligand binding (125I labeled MIP-1α binding to CCR1 expressing cells)
Design: expressed in transfected cells; host or cells: NSO murine myeloma (CCR1-NSO) or HEK 293 (CCR1-293)
Settings: dose response; cells not given; read-out: CCR1 affinity (MIP-1α binding)
Protocol: CCR1 expressing cells were centrifuged and resuspended in assay buffer (20 mM HEPES pH 7.1, 140 mM NaCl, 1 mM CaCl2, 5 mM MgCl2, and with 0.2% bovine serum albumin) to a concentration of 5.6×10^6 cells/ml (CCR1-NSO) or 2.2×10^6 cells/ml ([…].). Screening assays were set up as follows. First, 0.09 ml of cells (5×10^5 CCR1-NSO cells/well or 2×10^5 CCR1-293 cells/well) was added to the assay plates containing the compounds, giving a final concentration of ˜2-10 μM each compound. […] Scintillation fluid (50 μl; Microscint 20, Packard Instruments) was added to each well, the plates were sealed and radioactivity measured in a Top Count scintillation counter (Packard Instruments). […]
To identify small organic molecules that prevent the receptor CCR1 from binding ligand, an assay was employed that detected radioactive ligand (MIP-1α) binding to cells expressing exogenous CCR1 on the cell surface.
A NSO murine myeloma cell line (CCR1-NSO) and a human embryonic kidney (HEK) carcinoma cell line (CCR1-293) were constructed that constitutively expressed human CCR1 on the cell surface; these cells lack other chemokine receptors that bind MIP-1α. […] Unbound ligand was removed by washing the cells, and bound ligand was determined by quantifying radioactive counts. […] Percent inhibition was determined by the equation: […]

| SMILES | IC50 |
| --- | --- |
| Cc1ccc(C(/C(Cl)=C(\Cl)C(=O)O)c2ccc(C)cc2C)c(C)c1 [CCX-541] | < 1000 nM |
| O=C1NCCCCC1N(Cc1ccccc1F)C(=O)C(c1ccccc1)c1ccccc1 (centres unmarked) [CCX-469] | < 1000 nM |
